Experimental data published in patent US20030152959A1.
These are yes or no findings as the source states them, for the method shown. Binding seen in cells or lysates may run through a third protein. Some results given as binding are weak or reduced against the parent protein; the word gives no strength.

Chains of the proteins cited; added tags and fusions are not shown.
UniProt Q00403: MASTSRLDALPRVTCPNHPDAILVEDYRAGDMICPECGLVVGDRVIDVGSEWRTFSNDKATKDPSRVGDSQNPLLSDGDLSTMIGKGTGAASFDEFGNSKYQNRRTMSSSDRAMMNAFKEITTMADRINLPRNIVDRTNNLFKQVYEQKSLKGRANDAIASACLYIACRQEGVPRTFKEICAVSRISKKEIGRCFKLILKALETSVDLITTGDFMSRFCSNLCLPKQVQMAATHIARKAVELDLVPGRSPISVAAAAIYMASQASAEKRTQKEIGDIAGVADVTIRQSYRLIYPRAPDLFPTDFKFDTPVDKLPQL
UniProt P03372: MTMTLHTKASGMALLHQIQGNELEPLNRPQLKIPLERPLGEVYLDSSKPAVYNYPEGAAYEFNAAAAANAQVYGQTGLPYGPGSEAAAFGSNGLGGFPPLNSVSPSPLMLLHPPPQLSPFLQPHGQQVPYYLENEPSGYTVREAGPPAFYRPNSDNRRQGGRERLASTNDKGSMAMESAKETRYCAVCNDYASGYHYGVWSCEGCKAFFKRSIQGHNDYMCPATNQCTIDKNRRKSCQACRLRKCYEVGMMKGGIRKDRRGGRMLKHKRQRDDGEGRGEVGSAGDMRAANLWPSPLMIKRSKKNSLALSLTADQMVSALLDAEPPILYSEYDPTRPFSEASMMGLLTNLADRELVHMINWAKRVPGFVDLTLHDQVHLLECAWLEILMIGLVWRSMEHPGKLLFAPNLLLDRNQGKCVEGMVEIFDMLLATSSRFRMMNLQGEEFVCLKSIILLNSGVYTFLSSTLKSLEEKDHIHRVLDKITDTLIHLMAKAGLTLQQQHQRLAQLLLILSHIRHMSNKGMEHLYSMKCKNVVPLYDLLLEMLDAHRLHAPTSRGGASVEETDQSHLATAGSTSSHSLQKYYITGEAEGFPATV

Legend:
TFIIB = TFIIB (UniProt Q00403); assay: GST pull-down on glutathione-Sepharose, 35S-labelled TFIIB from reticulocyte lysate, SDS-PAGE and fluorography
human ERRα1 (human) [1] = target: T1, human ERRα1 (human) (UniProt P11474); assay: GST pull-down, figure legend of FIG. 9A
T1 sequence: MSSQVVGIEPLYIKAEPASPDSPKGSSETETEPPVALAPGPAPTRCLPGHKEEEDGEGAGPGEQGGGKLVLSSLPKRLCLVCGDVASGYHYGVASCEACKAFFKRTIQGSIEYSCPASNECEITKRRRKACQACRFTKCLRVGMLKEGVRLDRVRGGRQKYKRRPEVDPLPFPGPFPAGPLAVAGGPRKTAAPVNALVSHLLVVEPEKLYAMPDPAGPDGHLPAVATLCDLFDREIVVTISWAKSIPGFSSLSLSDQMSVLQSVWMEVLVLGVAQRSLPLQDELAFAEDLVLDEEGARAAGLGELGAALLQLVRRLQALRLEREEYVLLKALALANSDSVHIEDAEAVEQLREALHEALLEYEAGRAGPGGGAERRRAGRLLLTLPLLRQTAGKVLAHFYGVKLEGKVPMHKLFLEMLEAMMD

human ERRα1 (human) [2] = target: T1, human ERRα1 (human); assay: GST pull-down, 35S-labelled ERRα1 from reticulocyte lysate

| binding (TFIIB) | binding (human ERRα1 (human) [1]) | binding (human ERRα1 (human) [2]) | Substance |
| --- | --- | --- | --- |
| binds | – | – | GST-COUP-TF1 (from UniProt P08515 1-218; P10589 1-423) |
| binds | binds | binds | GST-ERα (from UniProt P03372 1-595) |
| – | – | binds | GST-TFIIB (from UniProt Q00403 1-316) |
